Reference: publication PMC3498133
No constants are given. Whether binding was seen depends on the method and setting.

Molecular target: T1, ExoU (Pseudomonas aeruginosa), O34208
T1 chain: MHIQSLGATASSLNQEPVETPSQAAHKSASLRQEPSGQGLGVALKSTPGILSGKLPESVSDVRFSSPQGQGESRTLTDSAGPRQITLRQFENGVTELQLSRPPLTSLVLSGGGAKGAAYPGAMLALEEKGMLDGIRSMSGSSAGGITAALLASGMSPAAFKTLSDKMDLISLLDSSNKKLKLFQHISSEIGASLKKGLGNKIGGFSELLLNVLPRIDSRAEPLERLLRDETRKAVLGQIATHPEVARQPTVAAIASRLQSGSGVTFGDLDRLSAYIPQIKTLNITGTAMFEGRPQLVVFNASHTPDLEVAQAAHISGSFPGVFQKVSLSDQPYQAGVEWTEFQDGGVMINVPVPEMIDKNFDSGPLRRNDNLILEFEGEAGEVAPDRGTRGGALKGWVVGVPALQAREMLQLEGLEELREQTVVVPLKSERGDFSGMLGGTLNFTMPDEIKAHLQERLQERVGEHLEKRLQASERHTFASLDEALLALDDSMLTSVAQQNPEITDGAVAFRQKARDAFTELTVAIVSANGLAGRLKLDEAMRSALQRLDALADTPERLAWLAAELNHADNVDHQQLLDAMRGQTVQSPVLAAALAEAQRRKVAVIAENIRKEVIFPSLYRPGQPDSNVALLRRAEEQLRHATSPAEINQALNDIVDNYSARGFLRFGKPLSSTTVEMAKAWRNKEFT
Assay: SEC-MALS; Superdex 200 10/300 GL, 100 µL at 2 mg/mL, 10 mM Tris-HCl pH 8.3 with 200 mM or 500 mM NaCl, 22°C; ExoU, SpcU, the co-expressed/co-purified complex and ExoU:SpcU mixtures (1:2.5 and 1:8); both purified
Conditions: remark: other sources report otherwise

B1: ExoU, O34208 1-687 (protein)
chain: MHIQSLGATASSLNQEPVETPSQAAHKSASLRQEPSGQGLGVALKSTPGILSGKLPESVSDVRFSSPQGQGESRTLTDSAGPRQITLRQFENGVTELQLSRPPLTSLVLSGGGAKGAAYPGAMLALEEKGMLDGIRSMSGSSAGGITAALLASGMSPAAFKTLSDKMDLISLLDSSNKKLKLFQHISSEIGASLKKGLGNKIGGFSELLLNVLPRIDSRAEPLERLLRDETRKAVLGQIATHPEVARQPTVAAIASRLQSGSGVTFGDLDRLSAYIPQIKTLNITGTAMFEGRPQLVVFNASHTPDLEVAQAAHISGSFPGVFQKVSLSDQPYQAGVEWTEFQDGGVMINVPVPEMIDKNFDSGPLRRNDNLILEFEGEAGEVAPDRGTRGGALKGWVVGVPALQAREMLQLEGLEELREQTVVVPLKSERGDFSGMLGGTLNFTMPDEIKAHLQERLQERVGEHLEKRLQASERHTFASLDEALLALDDSMLTSVAQQNPEITDGAVAFRQKARDAFTELTVAIVSANGLAGRLKLDEAMRSALQRLDALADTPERLAWLAAELNHADNVDHQQLLDAMRGQTVQSPVLAAALAEAQRRKVAVIAENIRKEVIFPSLYRPGQPDSNVALLRRAEEQLRHATSPAEINQALNDIVDNYSARGFLRFGKPLSSTTVEMAKAWRNKEFT
binding: no binding (tested: 2 mg/mL)
